Laboratory results published in paper PMC3741135.
These are yes or no findings as the source states them, for the method shown. In cells and extracts the contact can be indirect. Some results given as binding are weak or reduced against the parent protein; the word gives no strength.

Protein sequences, listed by entry. Tags and fused reporters are not part of them.
UniProt F1RNW6: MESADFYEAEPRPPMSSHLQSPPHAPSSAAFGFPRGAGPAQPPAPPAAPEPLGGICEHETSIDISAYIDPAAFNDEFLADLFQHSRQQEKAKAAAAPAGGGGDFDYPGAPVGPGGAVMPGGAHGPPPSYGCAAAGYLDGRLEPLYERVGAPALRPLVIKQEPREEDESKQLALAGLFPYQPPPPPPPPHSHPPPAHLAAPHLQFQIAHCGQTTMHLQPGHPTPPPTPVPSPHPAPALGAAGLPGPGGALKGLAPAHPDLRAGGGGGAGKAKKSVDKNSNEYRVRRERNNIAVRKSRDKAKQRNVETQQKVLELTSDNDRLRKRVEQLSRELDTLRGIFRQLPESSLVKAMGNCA

Molecular target: T1, Sirt1 (endogenous, porcine adipocytes) (pig (endogenous in porcine adipocytes)) (UniProt A7LKB1)
T1 sequence: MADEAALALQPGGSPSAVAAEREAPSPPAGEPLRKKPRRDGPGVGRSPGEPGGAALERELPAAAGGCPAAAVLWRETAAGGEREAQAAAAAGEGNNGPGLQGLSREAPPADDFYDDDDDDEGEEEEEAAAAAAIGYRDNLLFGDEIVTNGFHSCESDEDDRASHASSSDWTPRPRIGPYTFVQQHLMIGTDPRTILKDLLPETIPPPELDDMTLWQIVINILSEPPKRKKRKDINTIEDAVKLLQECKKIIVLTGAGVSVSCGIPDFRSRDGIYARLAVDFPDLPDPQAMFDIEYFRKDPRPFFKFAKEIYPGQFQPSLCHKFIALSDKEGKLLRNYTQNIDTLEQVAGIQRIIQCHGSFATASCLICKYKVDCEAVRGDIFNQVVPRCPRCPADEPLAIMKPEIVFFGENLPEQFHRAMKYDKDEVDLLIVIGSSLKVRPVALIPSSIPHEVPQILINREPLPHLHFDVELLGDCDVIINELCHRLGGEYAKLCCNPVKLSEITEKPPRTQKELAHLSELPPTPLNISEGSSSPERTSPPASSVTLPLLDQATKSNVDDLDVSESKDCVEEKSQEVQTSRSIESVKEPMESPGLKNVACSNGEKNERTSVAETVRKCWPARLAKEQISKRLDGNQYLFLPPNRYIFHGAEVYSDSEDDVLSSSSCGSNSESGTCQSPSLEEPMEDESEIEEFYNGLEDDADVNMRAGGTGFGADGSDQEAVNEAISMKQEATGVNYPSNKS
Experiment: co-IP; endogenous proteins; 10 mg total porcine adipocyte lysate with 4 µg antibody overnight, captured on goat anti-rabbit or anti-mouse IgG magnetic beads for 4 h; washed 4 times with lysis buffer; Western blot; Akt2 with Sirt1 over the days of differentiation, the other pairs at day 8 after induction

binding: binds
Substance: C/EBPα (endogenous, porcine adipocytes) (from UniProt F1RNW6 1-354)
